# The supplement of paper PMC12819154, “High-throughput peptide-centric local stability assay extends protein–ligand identification to membrane proteins, tissues and bacteria” (Nature Structural & Molecular Biology, 2025)
# Amino acid sequences for entries named in this document (tags omitted). A change or cut given only in a name is not applied to a line headed by its entry.
# UniProt Q16587: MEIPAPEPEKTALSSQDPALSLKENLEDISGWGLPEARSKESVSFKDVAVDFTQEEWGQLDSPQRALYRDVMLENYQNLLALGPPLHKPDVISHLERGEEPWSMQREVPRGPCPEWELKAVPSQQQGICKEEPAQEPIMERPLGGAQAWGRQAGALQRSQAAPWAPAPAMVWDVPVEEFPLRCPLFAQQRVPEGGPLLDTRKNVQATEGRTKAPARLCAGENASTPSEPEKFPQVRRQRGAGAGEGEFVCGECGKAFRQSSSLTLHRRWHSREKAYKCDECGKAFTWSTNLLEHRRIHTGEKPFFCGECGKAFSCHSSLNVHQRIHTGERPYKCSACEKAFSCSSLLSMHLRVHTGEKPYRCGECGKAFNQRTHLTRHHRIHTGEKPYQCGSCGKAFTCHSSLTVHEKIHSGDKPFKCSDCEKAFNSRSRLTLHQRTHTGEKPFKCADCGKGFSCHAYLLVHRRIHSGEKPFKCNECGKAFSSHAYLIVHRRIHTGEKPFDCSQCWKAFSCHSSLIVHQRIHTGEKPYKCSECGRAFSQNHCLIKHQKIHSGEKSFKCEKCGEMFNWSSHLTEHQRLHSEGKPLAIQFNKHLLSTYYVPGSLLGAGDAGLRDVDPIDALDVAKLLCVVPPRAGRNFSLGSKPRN
# UniProt Q15406: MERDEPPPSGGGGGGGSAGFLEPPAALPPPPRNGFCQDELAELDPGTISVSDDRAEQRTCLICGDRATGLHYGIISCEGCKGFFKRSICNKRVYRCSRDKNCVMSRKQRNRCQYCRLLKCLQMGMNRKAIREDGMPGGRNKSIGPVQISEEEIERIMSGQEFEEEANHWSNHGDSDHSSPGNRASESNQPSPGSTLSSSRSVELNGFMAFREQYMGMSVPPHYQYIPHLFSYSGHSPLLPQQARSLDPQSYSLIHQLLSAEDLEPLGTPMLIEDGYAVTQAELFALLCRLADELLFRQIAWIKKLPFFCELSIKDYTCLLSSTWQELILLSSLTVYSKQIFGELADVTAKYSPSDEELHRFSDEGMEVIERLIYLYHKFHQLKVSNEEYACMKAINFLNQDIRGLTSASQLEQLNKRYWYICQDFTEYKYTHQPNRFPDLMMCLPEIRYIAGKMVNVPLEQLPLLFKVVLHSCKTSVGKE
# UniProt Q16698: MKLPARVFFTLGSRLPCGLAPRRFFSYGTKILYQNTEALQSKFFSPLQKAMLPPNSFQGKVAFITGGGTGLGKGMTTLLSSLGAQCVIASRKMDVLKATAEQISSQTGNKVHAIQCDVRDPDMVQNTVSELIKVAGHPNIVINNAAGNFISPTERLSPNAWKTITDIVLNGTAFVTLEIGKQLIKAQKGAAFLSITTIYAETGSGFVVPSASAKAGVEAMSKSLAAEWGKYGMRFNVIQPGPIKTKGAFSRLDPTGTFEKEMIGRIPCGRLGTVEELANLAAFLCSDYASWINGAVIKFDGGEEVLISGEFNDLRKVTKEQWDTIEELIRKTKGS
# UniProt Q15573: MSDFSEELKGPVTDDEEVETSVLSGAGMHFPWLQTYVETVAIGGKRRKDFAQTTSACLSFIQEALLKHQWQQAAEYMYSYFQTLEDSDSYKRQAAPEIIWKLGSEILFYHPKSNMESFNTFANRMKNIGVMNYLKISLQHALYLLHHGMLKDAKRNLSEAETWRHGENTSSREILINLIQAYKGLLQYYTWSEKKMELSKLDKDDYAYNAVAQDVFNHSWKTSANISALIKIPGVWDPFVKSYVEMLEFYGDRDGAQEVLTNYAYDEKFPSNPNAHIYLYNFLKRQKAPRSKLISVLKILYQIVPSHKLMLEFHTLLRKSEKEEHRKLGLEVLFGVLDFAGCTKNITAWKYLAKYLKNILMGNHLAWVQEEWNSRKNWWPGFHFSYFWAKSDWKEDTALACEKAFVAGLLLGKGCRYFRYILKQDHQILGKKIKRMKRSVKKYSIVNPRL
# UniProt Q16762: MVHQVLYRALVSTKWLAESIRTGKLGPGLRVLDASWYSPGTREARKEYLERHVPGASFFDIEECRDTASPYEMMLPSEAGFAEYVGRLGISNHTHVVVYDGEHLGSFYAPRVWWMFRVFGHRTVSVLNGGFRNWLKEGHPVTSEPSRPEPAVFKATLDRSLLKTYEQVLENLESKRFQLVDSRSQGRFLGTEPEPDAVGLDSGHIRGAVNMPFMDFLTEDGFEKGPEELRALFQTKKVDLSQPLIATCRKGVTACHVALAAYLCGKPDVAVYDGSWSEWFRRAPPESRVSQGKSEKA
# UniProt Q15437: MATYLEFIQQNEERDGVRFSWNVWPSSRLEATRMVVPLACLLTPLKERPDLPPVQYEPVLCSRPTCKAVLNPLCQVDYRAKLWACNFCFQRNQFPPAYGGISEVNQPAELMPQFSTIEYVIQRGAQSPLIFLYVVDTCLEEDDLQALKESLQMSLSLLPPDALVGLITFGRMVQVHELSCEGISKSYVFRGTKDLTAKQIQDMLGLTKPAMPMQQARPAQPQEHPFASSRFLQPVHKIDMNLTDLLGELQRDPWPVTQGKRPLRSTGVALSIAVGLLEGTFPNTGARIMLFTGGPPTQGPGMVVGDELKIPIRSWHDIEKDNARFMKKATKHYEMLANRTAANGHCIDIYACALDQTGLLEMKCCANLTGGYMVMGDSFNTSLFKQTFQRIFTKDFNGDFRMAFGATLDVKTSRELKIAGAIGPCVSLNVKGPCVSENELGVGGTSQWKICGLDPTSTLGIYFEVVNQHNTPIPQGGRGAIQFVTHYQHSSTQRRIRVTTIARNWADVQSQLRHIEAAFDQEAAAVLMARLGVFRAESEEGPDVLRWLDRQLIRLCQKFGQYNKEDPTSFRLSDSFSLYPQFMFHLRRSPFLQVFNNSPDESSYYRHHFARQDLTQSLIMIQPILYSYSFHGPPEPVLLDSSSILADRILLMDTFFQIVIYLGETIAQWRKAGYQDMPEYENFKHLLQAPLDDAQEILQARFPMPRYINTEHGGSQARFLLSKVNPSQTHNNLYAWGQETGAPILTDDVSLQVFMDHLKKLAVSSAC
# UniProt Q15173: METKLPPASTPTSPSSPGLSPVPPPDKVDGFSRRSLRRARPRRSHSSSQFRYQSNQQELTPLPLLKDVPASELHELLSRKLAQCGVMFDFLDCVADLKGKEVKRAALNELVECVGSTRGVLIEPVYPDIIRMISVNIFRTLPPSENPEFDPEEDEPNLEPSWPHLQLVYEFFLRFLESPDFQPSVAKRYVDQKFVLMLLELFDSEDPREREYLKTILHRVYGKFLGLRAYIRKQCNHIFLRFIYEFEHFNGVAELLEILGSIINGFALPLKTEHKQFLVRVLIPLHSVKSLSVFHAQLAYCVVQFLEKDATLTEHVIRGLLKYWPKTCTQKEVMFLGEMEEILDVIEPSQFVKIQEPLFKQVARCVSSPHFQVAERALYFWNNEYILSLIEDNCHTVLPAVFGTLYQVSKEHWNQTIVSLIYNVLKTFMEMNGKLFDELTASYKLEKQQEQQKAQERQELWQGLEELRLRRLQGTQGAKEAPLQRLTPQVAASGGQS
# UniProt Q15329: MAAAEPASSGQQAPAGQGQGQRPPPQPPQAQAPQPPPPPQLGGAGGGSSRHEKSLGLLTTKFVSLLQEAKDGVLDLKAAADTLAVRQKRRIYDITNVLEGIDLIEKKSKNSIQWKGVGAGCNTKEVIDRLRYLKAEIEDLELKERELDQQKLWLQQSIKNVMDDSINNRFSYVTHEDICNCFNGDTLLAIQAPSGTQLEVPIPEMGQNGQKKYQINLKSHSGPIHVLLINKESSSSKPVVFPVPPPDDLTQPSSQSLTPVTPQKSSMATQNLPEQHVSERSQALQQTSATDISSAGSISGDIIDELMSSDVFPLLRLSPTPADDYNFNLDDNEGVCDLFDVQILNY
# UniProt Q15695: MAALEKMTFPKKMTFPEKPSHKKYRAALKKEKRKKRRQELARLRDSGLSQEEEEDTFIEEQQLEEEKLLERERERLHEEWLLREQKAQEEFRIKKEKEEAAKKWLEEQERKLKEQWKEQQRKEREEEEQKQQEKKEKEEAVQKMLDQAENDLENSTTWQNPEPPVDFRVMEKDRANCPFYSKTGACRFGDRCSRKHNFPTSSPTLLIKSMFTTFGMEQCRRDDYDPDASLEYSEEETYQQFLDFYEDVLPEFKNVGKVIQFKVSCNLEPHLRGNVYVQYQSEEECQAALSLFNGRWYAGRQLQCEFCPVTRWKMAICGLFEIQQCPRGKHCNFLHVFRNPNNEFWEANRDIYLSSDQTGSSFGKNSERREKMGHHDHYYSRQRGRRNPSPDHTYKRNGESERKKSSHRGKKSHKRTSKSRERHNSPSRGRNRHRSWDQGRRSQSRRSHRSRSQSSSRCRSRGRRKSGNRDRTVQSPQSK
# UniProt Q3KP66: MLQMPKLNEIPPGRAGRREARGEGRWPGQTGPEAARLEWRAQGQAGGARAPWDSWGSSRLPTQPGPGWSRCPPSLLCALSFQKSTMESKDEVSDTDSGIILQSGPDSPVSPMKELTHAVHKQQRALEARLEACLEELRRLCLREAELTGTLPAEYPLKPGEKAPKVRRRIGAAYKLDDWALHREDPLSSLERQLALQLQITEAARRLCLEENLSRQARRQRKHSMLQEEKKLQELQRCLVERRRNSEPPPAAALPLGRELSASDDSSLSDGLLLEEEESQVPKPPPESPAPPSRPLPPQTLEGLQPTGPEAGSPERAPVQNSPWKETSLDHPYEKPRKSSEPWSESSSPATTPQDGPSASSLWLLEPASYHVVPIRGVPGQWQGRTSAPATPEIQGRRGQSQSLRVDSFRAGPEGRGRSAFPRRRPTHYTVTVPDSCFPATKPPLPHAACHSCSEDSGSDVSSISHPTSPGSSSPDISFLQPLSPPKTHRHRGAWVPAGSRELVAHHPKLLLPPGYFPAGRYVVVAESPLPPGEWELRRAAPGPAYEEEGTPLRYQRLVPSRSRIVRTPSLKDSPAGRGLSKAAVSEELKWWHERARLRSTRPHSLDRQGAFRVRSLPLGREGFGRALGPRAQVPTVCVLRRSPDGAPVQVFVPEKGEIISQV
# UniProt Q15067: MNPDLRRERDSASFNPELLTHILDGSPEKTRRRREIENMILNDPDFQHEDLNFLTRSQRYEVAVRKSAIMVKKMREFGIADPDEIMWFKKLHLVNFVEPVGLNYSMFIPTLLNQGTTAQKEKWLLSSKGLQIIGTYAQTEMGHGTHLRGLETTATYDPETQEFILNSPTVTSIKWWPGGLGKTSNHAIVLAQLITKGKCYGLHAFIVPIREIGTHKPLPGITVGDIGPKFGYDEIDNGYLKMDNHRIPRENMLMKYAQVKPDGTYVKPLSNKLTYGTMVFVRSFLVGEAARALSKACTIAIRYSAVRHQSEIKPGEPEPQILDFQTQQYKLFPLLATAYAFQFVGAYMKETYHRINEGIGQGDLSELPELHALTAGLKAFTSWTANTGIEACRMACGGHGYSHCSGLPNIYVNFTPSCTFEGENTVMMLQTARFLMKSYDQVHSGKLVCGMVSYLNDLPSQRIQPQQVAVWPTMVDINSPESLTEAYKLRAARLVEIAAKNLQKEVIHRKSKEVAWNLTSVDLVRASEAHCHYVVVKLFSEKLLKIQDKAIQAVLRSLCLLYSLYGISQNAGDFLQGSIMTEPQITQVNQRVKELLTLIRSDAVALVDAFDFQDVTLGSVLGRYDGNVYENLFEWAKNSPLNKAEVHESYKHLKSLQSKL
# This is one part of the list. Most entries show no effect beyond the scatter of the controls.
# Compound: CN[C@@H]1C[C@H]2O[C@@](C)([C@@H]1OC)n1c3ccccc3c3c4c(c5c6ccccc6n2c5c31)C(=O)NC4 [staurosporine]
# Experiment: log2 fold change of tryptic peptide abundance, ligand vs vehicle (limited proteolysis) (log2 ratio); higher = more trypsin-susceptible (destabilized)
# Conditions: ligand concentration: 20 uM; sample: K562 cleared lysate; digestion: 4 min, 22 C (HT-PELSA RT4min, Orbitrap Astral)
row,Target,log2 fold change
1,"ZNF74 (peptide sequence: AFTWSTNLLEHR, peptide start residue: 284) (UniProt Q16587)",-0.277
2,"UniProt Q15406 (peptide sequence: ATGLHYGIISCEGCK, peptide start residue: 67)",-0.314
3,"DECR1 (peptide sequence: VHAIQCDVRDPDMVQNTVSELIK, peptide start residue: 111) (UniProt Q16698)",0.448
4,"TAF1A (peptide sequence: LGSEILFYHPK, peptide start residue: 102) (UniProt Q15573)",-0.587
5,"TST (peptide sequence: KVDLSQPLIATCR, peptide start residue: 237) (UniProt Q16762)",-0.165
6,"SEC23B (peptide sequence: LSDSFSLYPQFMFHLRR, peptide start residue: 572) (UniProt Q15437)",0.43
7,"PPP2R5B (peptide sequence: CVSSPHFQVAER, peptide start residue: 410) (UniProt Q15173)",0.126
8,"UniProt Q15329 (peptide sequence: IYDITNVLEGIDLIEKK, peptide start residue: 91)",0.319
9,"UniProt Q15695 (peptide sequence: LHEEWLLR, peptide start residue: 71)",-0.00797
10,"UniProt Q3KP66 (peptide sequence: LEACLEELR, peptide start residue: 130)",-0.0344
11,"ACOX1 (peptide sequence: TSNHAIVLAQLITK, peptide start residue: 183) (UniProt Q15067)",0.455

# Given with tabs: entries from further up.
row	Target	log2 fold change
3	DECR1 (peptide sequence: VHAIQCDVRDPDMVQNTVSELIK, peptide start residue: 111) (UniProt Q16698)	0.448
4	TAF1A (peptide sequence: LGSEILFYHPK, peptide start residue: 102) (UniProt Q15573)	-0.587
